Reference: patent US4355101A, “Phenylmercaptoazole compounds” (Polaroid Corporation, priority 1981, dated 1982)

Assay: Diffusion transfer film unit with top coat layer of blocked compound: Dmax and Dmin (red, green, blue)
Details: 24° C.

SMILES | Dmax B | Dmax G | Dmax R | Dmin B | Dmin G | Dmin R
CS(=O)(=O)CCSc1nnnn1-c1ccc(S(N)(=O)=O)cc1 [Compound II] | 1.41 | 1.43 | 1.33 | 0.23 | 0.16 | 0.15
CC(=NO)c1ccc(-n2nnnc2SCCC#N)cc1 [Compound VI] | 1.64 | 1.65 | 1.58 | 0.15 | 0.13 | 0.16
CC(=O)Oc1ccc(CSc2nnnn2-c2ccc(O)cc2)cc1 [Compound VII] | 1.88 | 1.83 | 1.48 | 0.23 | 0.15 | 0.14
N#CCCSc1nnnn1-c1ccc(O)cc1 [Compound V] | 1.46 | 1.42 | 1.30 | 0.15 | 0.13 | 0.15
CC(=O)CCSc1nnnn1-c1ccc(O)cc1 [Compound III] | 1.91 | 1.74 | 1.68 | 0.26 | 0.17 | 0.16
CC(=O)CCSc1nnnn1-c1ccc(S(N)(=O)=O)cc1 [Compound IV] | 1.37 | 1.39 | 1.44 | 0.16 | 0.13 | 0.16
CS(=O)(=O)CCSc1nnnn1-c1ccc(O)cc1 [Compound I] | 1.40 | 1.48 | 1.60 | 0.24 | 0.17 | 0.18

Same assay, conditions: 35° C.

SMILES | Dmax B | Dmax G | Dmax R | Dmin B | Dmin G | Dmin R
CS(=O)(=O)CCSc1nnnn1-c1ccc(S(N)(=O)=O)cc1 [Compound II] | 1.11 | 1.13 | 1.07 | 0.25 | 0.17 | 0.16
CC(=NO)c1ccc(-n2nnnc2SCCC#N)cc1 [Compound VI] | 1.34 | 1.35 | 1.40 | 0.17 | 0.14 | 0.16
CC(=O)Oc1ccc(CSc2nnnn2-c2ccc(O)cc2)cc1 [Compound VII] | 1.61 | 1.78 | 1.67 | 0.25 | 0.15 | 0.14
N#CCCSc1nnnn1-c1ccc(O)cc1 [Compound V] | 1.24 | 1.27 | 1.24 | 0.17 | 0.14 | 0.17
CC(=O)CCSc1nnnn1-c1ccc(O)cc1 [Compound III] | 1.62 | 1.67 | 1.65 | 0.26 | 0.17 | 0.16
CC(=O)CCSc1nnnn1-c1ccc(S(N)(=O)=O)cc1 [Compound IV] | 1.14 | 1.24 | 1.28 | 0.17 | 0.14 | 0.16
CS(=O)(=O)CCSc1nnnn1-c1ccc(O)cc1 [Compound I] | 1.12 | 1.23 | 1.32 | 0.24 | 0.17 | 0.16
